# Reference: the supplement of paper PMC8728848
# This is one part of the list.
# B1: EUL D1A first (Oryza sativa) (protein)
# chain: MFGFGHHHNQAPAAPSDPNQIFKIFCRANENYCLTVRDSAVVLAPVNPKDEHQHWFKDMRFSTKVKDGEGMPAFALVNKATGLAVKHSLGQSHPVKLVPFNPEYEDASVLWTESKDVGKGFRCIRMVNNTRLNLDAFHGDKDHGGVRDGTTVVLWEWCKGDNQSWKILPWGPEAHSSSPGAATILEQKLISEEDLNSAVDHHHHHH
# How the values were obtained:
# Assay in all cases: glycan array binding signal (z-score within array); higher = stronger binding
# Conditions in all cases: glycan notation: IUPAC condensed, linker removed
# [1] = molecular target: Gal(b1-4)GlcNAc(b1-3)Gal(b1-4)GlcNAc(b1-3)Gal(b1-4)GlcNAc(b1-3)Gal(b1-4)GlcNAc(b1-2)Man(a1-3)[Gal(b1-4)GlcNAc(b1-3)Gal(b1-4)GlcNAc(b1-3)Gal(b1-4)GlcNAc(b1-3)Gal(b1-4)GlcNAc(b1-2)Man(a1-6)]Man(b1-4)GlcNAc(b1-4)[Fuc(a1-6)]GlcNAc
# In short: (§1)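 Negative Z-scores can be read as non-binding. The Z-score is calculated within each array and then averaged across arrays of one protein sequence at different concentrations or buffers and across linkers. Arrays, 3228 in all, were curated from the Consortium for Functional Glycomics database and kept only where the protein sequence was available.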
# [2] = molecular target: Gal(b1-4)GlcNAc(b1-3)Gal(b1-4)GlcNAc(b1-3)Gal(b1-4)GlcNAc(b1-3)Gal(b1-4)GlcNAc(b1-2)[Gal(b1-4)GlcNAc(b1-3)Gal(b1-4)GlcNAc(b1-3)Gal(b1-4)GlcNAc(b1-3)Gal(b1-4)GlcNAc(b1-6)]Man(a1-6)[Gal(b1-4)GlcNAc(b1-3)Gal(b1-4)GlcNAc(b1-3)Gal(b1-4)GlcNAc(b1-3)Gal(b1-4)GlcNAc(b1-2)Man(a1-3)]Man(b1-4)GlcNAc(b1-4)[Fuc(a1-6)]GlcNAc
# In short: as §1
# [3] = molecular target: Gal(b1-4)GlcNAc(b1-3)Gal(b1-4)GlcNAc(b1-3)Gal(b1-4)GlcNAc(b1-3)Gal(b1-4)GlcNAc(b1-3)Gal(b1-4)GlcNAc(b1-2)Man(a1-3)[Gal(b1-4)GlcNAc(b1-3)Gal(b1-4)GlcNAc(b1-3)Gal(b1-4)GlcNAc(b1-3)Gal(b1-4)GlcNAc(b1-3)Gal(b1-4)GlcNAc(b1-2)Man(a1-6)]Man(b1-4)GlcNAc(b1-4)GlcNAc
# In short: as §1
# [4] = molecular target: Gal(b1-4)GlcNAc(b1-3)Gal(b1-4)GlcNAc(b1-3)Gal(b1-4)GlcNAc(b1-3)Gal(b1-4)GlcNAc(b1-3)Gal(b1-4)GlcNAc(b1-2)Man(a1-3)[Gal(b1-4)GlcNAc(b1-3)Gal(b1-4)GlcNAc(b1-3)Gal(b1-4)GlcNAc(b1-3)Gal(b1-4)GlcNAc(b1-3)Gal(b1-4)GlcNAc(b1-2)Man(a1-6)]Man(b1-4)GlcNAc(b1-4)[Fuc(a1-6)]GlcNAc
# In short: as §1
# [5] = molecular target: Gal(b1-4)GlcNAc(b1-3)Gal(b1-4)GlcNAc(b1-3)Gal(b1-4)GlcNAc(b1-3)Gal(b1-4)GlcNAc(b1-3)Gal(b1-4)GlcNAc(b1-2)[Gal(b1-4)GlcNAc(b1-3)Gal(b1-4)GlcNAc(b1-3)Gal(b1-4)GlcNAc(b1-3)Gal(b1-4)GlcNAc(b1-3)Gal(b1-4)GlcNAc(b1-6)]Man(a1-6)[Gal(b1-4)GlcNAc(b1-3)Gal(b1-4)GlcNAc(b1-3)Gal(b1-4)GlcNAc(b1-3)Gal(b1-4)GlcNAc(b1-3)Gal(b1-4)GlcNAc(b1-2)Man(a1-3)]Man(b1-4)GlcNAc(b1-4)[Fuc(a1-6)]GlcNAc
# In short: as §1
# [6] = molecular target: Gal(b1-4)GlcNAc(b1-3)Gal(b1-4)GlcNAc(b1-3)Gal(b1-4)GlcNAc(b1-3)Gal(b1-4)GlcNAc(b1-3)Gal(b1-4)GlcNAc(b1-3)Gal(b1-4)GlcNAc(b1-2)Man(a1-3)[Gal(b1-4)GlcNAc(b1-3)Gal(b1-4)GlcNAc(b1-3)Gal(b1-4)GlcNAc(b1-3)Gal(b1-4)GlcNAc(b1-3)Gal(b1-4)GlcNAc(b1-3)Gal(b1-4)GlcNAc(b1-2)Man(a1-6)]Man(b1-4)GlcNAc(b1-4)GlcNAc
# In short: as §1
# [7] = molecular target: Gal(b1-4)GlcNAc(b1-3)Gal(b1-4)GlcNAc(b1-3)GalNAc
# In short: as §1
# [8] = molecular target: Gal(b1-4)GlcNAc(b1-3)Gal(b1-4)GlcNAc(b1-3)[Gal(b1-4)GlcNAc(b1-3)Gal(b1-4)GlcNAc(b1-6)]GalNAc
# In short: as §1
# [9] = molecular target: Gal(b1-4)GlcNAc(b1-3)Gal(b1-4)GlcNAc(b1-6)[Gal(b1-3)]GalNAc
# In short: as §1
# [10] = molecular target: Gal(b1-4)GlcNAc(b1-3)Gal(b1-4)[Fuc(a1-3)]GlcNAc(b1-3)Gal(b1-4)[Fuc(a1-3)]GlcNAc
# In short: as §1
# [11] = molecular target: Gal(b1-4)GlcNAc(b1-3)GalNAc
# In short: as §1
# [12] = molecular target: Gal(b1-4)GlcNAc(b1-3)[Fuc(a1-3)GlcNAc(b1-6)]Gal(b1-4)Glc
# In short: as §1
# [13] = molecular target: Gal(b1-4)GlcNAc(b1-3)[Gal(b1-4)GlcNAc(b1-6)]Gal(b1-4)GlcNAc
# In short: as §1
# [14] = molecular target: Gal(b1-4)GlcNAc(b1-3)[GlcNAc(b1-6)]Gal(b1-4)GlcNAc
# In short: as §1
# [15] = molecular target: Gal(b1-4)GlcNAc(b1-6)Gal(b1-4)GlcNAc
# In short: as §1
# [16] = molecular target: Gal(b1-4)GlcNAc(b1-6)GalNAc
# In short: as §1
# [17] = molecular target: Gal(b1-4)GlcNAc(b1-6)[Gal(b1-3)]GalNAc
# In short: as §1
# [18] = molecular target: Gal(b1-4)GlcNAc(b1-6)[Gal(b1-4)GlcNAc(b1-3)]GalNAc
# In short: as §1
# [19] = molecular target: Gal(b1-4)GlcNAc6P
# In short: as §1
# [20] = molecular target: Gal(b1-6)Gal
# In short: as §1
# [21] = molecular target: Gal3S(b1-3)GalNAc
# In short: as §1
# [22] = molecular target: Gal3S(b1-3)GlcNAc
# In short: as §1
# [23] = molecular target: Gal3S(b1-3)[Fuc(a1-4)]GlcNAc
# In short: as §1
binder,measurement,setting,value
B1,glycan array binding signal (z-score),[1],1.13
same,glycan array binding signal (z-score),[2],1.1
same,glycan array binding signal (z-score),[3],-0.457
same,glycan array binding signal (z-score),[4],0.909
same,glycan array binding signal (z-score),[5],1.22
same,glycan array binding signal (z-score),[6],0.178
same,glycan array binding signal (z-score),[7],0.845
same,glycan array binding signal (z-score),[8],0.419
same,glycan array binding signal (z-score),[9],1.33
same,glycan array binding signal (z-score),[10],-0.16
same,glycan array binding signal (z-score),[11],-0.13
same,glycan array binding signal (z-score),[12],-0.392
same,glycan array binding signal (z-score),[13],-1.36
same,glycan array binding signal (z-score),[14],-0.46
same,glycan array binding signal (z-score),[15],-0.529
same,glycan array binding signal (z-score),[16],0.961
same,glycan array binding signal (z-score),[17],-0.087
same,glycan array binding signal (z-score),[18],-0.802
same,glycan array binding signal (z-score),[19],0.658
same,glycan array binding signal (z-score),[20],0.044
same,glycan array binding signal (z-score),[21],-1.5
same,glycan array binding signal (z-score),[22],0.245
same,glycan array binding signal (z-score),[23],0.422

# Another view of part of the listing above:
binder	measurement	setting	value
B1	glycan array binding signal (z-score)	[2]	1.1
same	glycan array binding signal (z-score)	[3]	-0.457
same	glycan array binding signal (z-score)	[4]	0.909
same	glycan array binding signal (z-score)	[5]	1.22
